Laboratory results: PubChem BioAssay AID686938 (Drosophila RNAi Screening Center, 2013)

Screen: 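Fly genes required for calcium entry once internal stores are emptied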 (primary screen)
Cells: Drosophila S2R+ cells
Knock-down reagent: long dsRNA against Drosophila genes, about 0.25 µg dsRNA per well, roughly 10,000 cells
Timing: 5 days of knock-down before the calcium assay
Challenge: thapsigargin (SERCA pump blocker) to empty calcium stores; entry signal taken 4 min after adding it
Read-out: 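Duplicate raw fluo-4 intensities per well from a plate reader, at rest and four minutes after thapsigargin emptied calcium stores; entry-to-rest ratio filled for only some wells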
Scale: calcium entry signal: higher = stronger calcium signal after store depletion; resting calcium signal: higher = higher resting calcium signal
Hit rule: 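Hit if the duplicate-averaged plate z-score for entry over resting signal is under −3; wells with weak total dye signal (Fmax z < −2) or more than 5 off-targets removed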
Meaning of the calls: active = strongly reduced calcium entry; inactive = no strong reduction
In all, the deposit lists about 23,000 reagents; this is a random part of those with a known target gene and a result. Of all reagents, 75 (0.33%) were called active. 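Raw plate signals without normalisation; calls rest on plate z-scores that were not deposited; ratio present for only 364 wells.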 The numbers tell different reagents against one gene apart. Not stated in the record: the dose of the treatment.

| gene knocked down | dsRNA no. | calcium entry signal, replicate 1 (fluorescence units) | calcium entry signal, replicate 2 (fluorescence units) | resting calcium signal, replicate 1 (fluorescence units) | resting calcium signal, replicate 2 (fluorescence units) | outcome |
| --- | --- | --- | --- | --- | --- | --- |
| CG13613 | 1 | 4.08e7 | 5.74e7 | 2.34e7 | 2.19e7 | inactive |
| twr | 1 | 4.15e7 | 2.89e7 | 1.98e7 | 1.43e7 | inactive |
| ATP6 (retired record) | 1 | 3.11e7 | 4.11e7 | 1.91e7 | 2.04e7 | inactive |
| b | 1 | 4.42e7 | 2.66e7 | 1.79e7 | 1.20e7 | inactive |
| CR42546 | 1 | 3.10e7 | 4.24e7 | 1.62e7 | 1.85e7 | inactive |
| CG13713 | 1 | 2.63e7 | 3.35e7 | 1.21e7 | 1.36e7 | inactive |
| tsh | 1 | 3.57e7 | 4.75e7 | 1.92e7 | 1.92e7 | inactive |
| CG43062 | 1 | 2.92e7 | 3.53e7 | 1.33e7 | 1.59e7 | inactive |

Sorted by “resting calcium signal, replicate 2 (fluorescence units)” (ascending): some entries from above
| gene knocked down | dsRNA no. | calcium entry signal, replicate 1 (fluorescence units) | calcium entry signal, replicate 2 (fluorescence units) | resting calcium signal, replicate 1 (fluorescence units) | resting calcium signal, replicate 2 (fluorescence units) | outcome |
| --- | --- | --- | --- | --- | --- | --- |
| b | 1 | 4.42e7 | 2.66e7 | 1.79e7 | 1.20e7 | inactive |
| ATP6 (retired record) | 1 | 3.11e7 | 4.11e7 | 1.91e7 | 2.04e7 | inactive |

Next records follow.
| gene knocked down | dsRNA no. | calcium entry signal, replicate 1 (fluorescence units) | calcium entry signal, replicate 2 (fluorescence units) | resting calcium signal, replicate 1 (fluorescence units) | resting calcium signal, replicate 2 (fluorescence units) | outcome |
| --- | --- | --- | --- | --- | --- | --- |
| fmt | 1 | 4.19e7 | 3.10e7 | 2.66e7 | 1.30e7 | inactive |
| ena | 1 | 3.95e7 | 3.28e7 | 1.90e7 | 1.82e7 | inactive |
| ena | 2 | 3.14e7 | 2.98e7 | 1.43e7 | 1.43e7 | inactive |
| hbn | 1 | 4.35e7 | 5.12e7 | 2.39e7 | 2.53e7 | inactive |
| hbn | 2 | 5.21e7 | 5.51e7 | 2.48e7 | 2.59e7 | inactive |
| hbn | 3 | 5.46e7 | 5.96e7 | 2.62e7 | 2.58e7 | inactive |
| hbn | 4 | 2.94e7 | 3.15e7 | 1.68e7 | 1.44e7 | inactive |
| CG9356 | 1 | 3.74e7 | 3.88e7 | 1.80e7 | 1.81e7 | inactive |
| wfs1 | 1 | 4.34e7 | 3.33e7 | 2.33e7 | 1.67e7 | inactive |
| klg | 1 | 5.48e7 | 3.21e7 | 2.49e7 | 1.65e7 | inactive |
| klg | 2 | 5.42e7 | 5.69e7 | 2.65e7 | 2.45e7 | inactive |
| CG34393 | 1 | 2.46e7 | 2.34e7 | 1.19e7 | 1.19e7 | inactive |
| CG34393 | 2 | 2.21e7 | 2.40e7 | 1.06e7 | 1.09e7 | inactive |
| Sox14 | 1 | 3.85e7 | 4.85e7 | 1.98e7 | 2.16e7 | inactive |
| Syt12 | 1 | 3.67e7 | 5.00e7 | 1.85e7 | 2.30e7 | inactive |
| CG6236 | 1 | 3.80e7 | 4.49e7 | 1.70e7 | 2.02e7 | inactive |
